We go through one substance from publication PMC8571522, “siRNA screening identifies METTL9 as a histidine Nπ-methyltransferase that targets the proinflammatory protein S100A9” (The Journal of Biological Chemistry, 2021).

Amino acid sequences for entries named in this document (tags omitted). A change or cut given only in a name is not applied to a line headed by its entry.
UniProt Q9EPL4: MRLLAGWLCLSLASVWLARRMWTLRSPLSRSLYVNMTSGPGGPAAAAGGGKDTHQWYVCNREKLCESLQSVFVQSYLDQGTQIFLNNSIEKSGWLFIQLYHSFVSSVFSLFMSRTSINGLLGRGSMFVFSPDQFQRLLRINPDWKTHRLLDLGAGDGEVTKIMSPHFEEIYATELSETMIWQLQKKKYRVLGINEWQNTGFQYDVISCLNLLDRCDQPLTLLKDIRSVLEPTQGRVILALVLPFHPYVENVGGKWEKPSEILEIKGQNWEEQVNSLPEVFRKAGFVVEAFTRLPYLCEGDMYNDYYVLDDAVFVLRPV

Results are given in words; binding and its absence hold for the method and conditions named. Binding seen in cells or lysates may run through a third protein. Binding calls can cover weak binding; strength is not graded here. Tags and fused reporters may be left off the sequences shown.

This test deals with T1, Flag-tagged mouse S100A9 (mouse) (UniProt P31725).
T1 sequence: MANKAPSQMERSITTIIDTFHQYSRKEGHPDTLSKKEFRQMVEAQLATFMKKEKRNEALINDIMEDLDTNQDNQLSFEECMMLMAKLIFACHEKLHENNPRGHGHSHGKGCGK
In words: co-IP; HEK293T cells transiently expressing Flag-S100A9 together with METTL9 (WT)-HA or METTL9 (ΔSP)-HA; lysis buffer 20 mM Hepes-KOH pH 7.9, 150 mM NaCl, 0.1% Triton X-100, 0.1 mM EDTA; precipitated with ANTI-FLAG M2 Affinity Gel, blot with anti-Flag and anti-HA; normal mouse IgG as negative control.

Regarding “C-terminal hemagglutinin-tagged mouse METTL9 (from UniProt Q9EPL4) (enzyme)”, the binding entry is recorded as “binds”.
